{"source": "patent US6423730B1", "about": "“Method to control termites” (Dow AgroSciences LLC, priority 1999, dated 2002)", "tested_on": "Reticulitermes", "assay": "AWPA E1-97 treated southern yellow pine wood block termite test", "type": "in vivo", "settings": "treated wood blocks", "experimental": "Compounds of Formula I were evaluated using standard evaluation methodology as prescribed by the American Wood Preservers Association Standard AWPA E1-97, incorporated herein by reference, using a species of the destructive termite, Reticulitermes.\nIn this test replicate containers containing damp sand and southern yellow pine wood blocks treated with the compound are used. Termites are introduced into the test container and after four weeks the containers are disassembled and the wood blocks are evaluated for termite damage. Termite mortality is also evaluated."}
{"smiles": "CCOP(=S)(OCC)Oc1nc(Cl)c(Cl)cc1Cl", "note": "[Comparative, chlorpyrifos, reference compound]", "values": [{"measurement": "End Use Level", "value": 0.288, "unit": "kg/m^3"}]}
{"smiles": "O=C(Nc1c(Br)cc(OC(F)(F)F)cc1Br)c1sc(C(F)(F)F)nc1C(F)(F)F", "note": "[Compound 5]", "values": [{"measurement": "End Use Level", "value": 0.384, "unit": "kg/m^3"}]}
